Laboratory results from PMC9478157.
Like-named read-outs stand apart in the source and are kept apart here. These are yes or no findings as the source states them, for the method shown. Binding seen in cells or lysates may run through a third protein. A yes stands for co-enrichment or nearness to the bait. Other partners may have been found.

Sequences of proteins named here, by UniProt entry; tags and fusion partners are left off. Residues count along the entry.
UniProt P23772: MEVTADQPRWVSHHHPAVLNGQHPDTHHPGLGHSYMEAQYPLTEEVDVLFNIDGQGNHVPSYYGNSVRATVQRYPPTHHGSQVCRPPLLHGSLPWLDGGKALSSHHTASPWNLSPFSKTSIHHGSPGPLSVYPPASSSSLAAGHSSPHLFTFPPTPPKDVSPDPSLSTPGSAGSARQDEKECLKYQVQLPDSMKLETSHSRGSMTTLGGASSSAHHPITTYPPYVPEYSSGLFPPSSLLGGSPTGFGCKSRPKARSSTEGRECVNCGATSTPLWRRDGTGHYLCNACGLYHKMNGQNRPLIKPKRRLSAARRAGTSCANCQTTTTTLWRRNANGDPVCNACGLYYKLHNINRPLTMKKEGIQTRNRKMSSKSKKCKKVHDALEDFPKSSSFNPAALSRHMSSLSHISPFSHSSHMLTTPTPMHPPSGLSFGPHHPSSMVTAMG
UniProt P14211, residues 18-416: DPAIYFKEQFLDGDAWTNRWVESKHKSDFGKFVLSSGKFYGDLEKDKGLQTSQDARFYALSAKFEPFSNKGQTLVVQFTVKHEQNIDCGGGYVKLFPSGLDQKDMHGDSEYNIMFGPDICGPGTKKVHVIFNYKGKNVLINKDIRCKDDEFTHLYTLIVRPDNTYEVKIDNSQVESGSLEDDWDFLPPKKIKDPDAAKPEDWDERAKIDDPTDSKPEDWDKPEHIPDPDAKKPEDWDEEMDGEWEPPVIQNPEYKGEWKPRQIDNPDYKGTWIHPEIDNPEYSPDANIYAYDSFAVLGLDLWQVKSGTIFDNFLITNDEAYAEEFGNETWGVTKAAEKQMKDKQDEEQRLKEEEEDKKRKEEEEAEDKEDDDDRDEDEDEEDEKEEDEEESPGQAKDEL

B1: JunB (endogenous, ILC2s) (protein, UniProt P09450 1-344)
chain: MCTKMEQPFYHDDSYAAAGYGRSPGSLSLHDYKLLKPTLALNLADPYRGLKGPGARGPGPEGSGAGSYFSGQGSDTGASLKLASTELERLIVPNSNGVITTTPTPPGQYFYPRGGGSGGGTGGGVTEEQEGFADGFVKALDDLHKMNHVTPPNVSLGASGGPQAGPGGVYAGPEPPPVYTNLSSYSPASAPSGGSGTAVGTGSSYPTATISYLPHAPPFAGGHPAQLGLSRGASAFKEEPQTVPEARSRDATPPVSPINMEDQERIKVERKRLRNRLAATKCRKRKLERIARLEDKVKTLKAENAGLSSAAGLLREQVAQLKQKVMTHVSNGCQLLLGVKGHAF
B2: JunD (endogenous, ILC2s) (protein, UniProt P15066 1-341)
chain: METPFYGEEALSGLAAGASSVAGATGAPGGGGFAPPGRAFPGAPPTSSMLKKDALTLSLAEQGAAGLKPGSATAPSALRPDGAPDGLLASPDLGLLKLASPELERLIIQSNGLVTTTPTSTQFLYPKVAASEEQEFAEGFVKALEDLHKQSQLGAATAATSGAPAPPAPADLAATPGATETPVYANLSSFAGGAGPPGGAATVAFAAEPVPFPPPPGALGPPPPPHPPRLAALKDEPQTVPDVPSFGDSPPLSPIDMDTQERIKAERKRLRNRIAASKCRKRKLERISRLEEKVKTLKSQNTELASTASLLREQVAQLKQKVLSHVNSGCQLLPQHQVPAY
B3: Pa2g4 (endogenous, liver ILC2s) (protein, UniProt P50580 1-394)
chain: MSGEDEQQEQTIAEDLVVTKYKMGGDIANRVLRSLVEASSSGVSVLSLCEKGDAMIMEETGKIFKKEKEMKKGIAFPTSISVNNCVCHFSPLKSDQDYILKEGDLVKIDLGVHVDGFIANVAHTFVIGVAQGTQVTGRKADVIKAAHLCAEAALRLVKPGNQNTQVTEAWNKVAHSFNCTPIEGMLSHQLKQHVIDGEKTIIQNPTDQQKKDHEKAEFEVHEVYAVDVLVSSGEGKAKDAGQRTTIYKRDPSKQYGLKMKTSRAFFSEVERRFDAMPFTLRAFEDEKKARMGVVECAKHELLQPFNVLYEKEGEFVAQFKFTVLLMPNGPMRITSGPFEPDLYKSEMEVQDAELKALLQSSASRKTQKKKKKKASKTVENATSGETLEENGAGD

Tests used:
[1] = target: GATA3 (endogenous, ILC2s) (mouse (endogenous in liver and lung ILC2s)) (UniProt P23772); experiment: affinity purification with mass spectrometry; IP of lysates of cultured liver ILC2s (1 x 10^7) and lung ILC2s (1.8 x 10^6) with anti-GATA3 antibody or IgG control, SDS-PAGE, LC-MS/MS; IP buffer 50 mM Tris-HCl pH 7.5, 150 mM NaCl, 10% glycerol, 0.1% Tween, 1 mM EDTA; hits by Mascot score, anti-GATA3/IgG control > 1
[2] = target: GATA3 (endogenous, ILC2s) (mouse (endogenous in liver and lung ILC2s)) (UniProt P23772); experiment: as above; remark: listed apart in the source

Molecule | binding [1] | binding [2]
Calr (endogenous, liver ILC2s) (from UniProt P14211 18-416) | binds | 
B1 |  | binds
B2 |  | binds
B3 |  | binds
